Screen size: about 410,000 compounds; about 2,000 (0.49%) were called active. The shares of active, inactive and inconclusive entries below differ from those in the screen. The call rests on the fitted dose curve; tested in HEK293 reporter line. Potencies of inconclusive entries are doubtful fits and often do not repeat.
Assay: qHTS Assay for Foot and Mouth Disease Virus Antivirals: Primary Screen against the MLPCN compound library; further: nearly all actives have a fitted effect of over 55% in size
Conditions: FMDV antiviral cell-based qHTS; activity, negative = inhibition: at 57.9 µM (top of the series)
Potency means the concentration at half of the fitted maximal effect.

Row | Compound | Potency | activity, negative = inhibition
1 | Nc1nc(N)c2sc3nc(C(F)(F)F)cc(C(F)(F)F)c3c2n1 | inconclusive: 15.8 µM [inhibitor, partial curve] | 
2 | Cc1cc(C(=O)CSc2ccc(F)cc2)cc(C)c1OC(=S)N(C)C | inconclusive: 0.794 µM [inhibitor, full curve, poor fit] | 
3 | CC1=NC(=O)C(N=Nc2cccc(C(=O)O)c2)N1c1ccccc1 (stereo not drawn) | inconclusive: 8.91 µM [inhibitor, partial curve, poor fit] | 
4 | COc1ccc(CCNc2ncnc3onc(C)c23)c(OC)c1 | inconclusive: 12.6 µM [inhibitor, partial curve, poor fit] | 
5 | COc1ccc(C(C)(C)C)cc1NC(=O)COC(=O)c1ccc([N+](=O)[O-])o1 | inconclusive: 1.41 µM [inhibitor, full curve] | 
6 | Cc1ccc(S(=O)(=O)N2CCC(C(=O)NC3CCCC3)CC2)cc1Cl | inconclusive: 25.1 µM [inhibitor, partial curve, poor fit] | 
7 | COc1ccccc1C(CNC(=O)c1ccc(OCc2c(C)noc2C)cc1)N1CCCC1 (stereo not drawn) | inactive | 
8 | CSc1ccc(/C=N/NC(=O)c2cccc(O)c2)cc1 | inconclusive: 20 µM [inhibitor, single point] | 
9 | CCOc1c(Br)cc(/C=C2\C(=O)N(CCC#N)N=C2C)cc1OC | inconclusive: 28.2 µM [inhibitor, single point] | 
10 | CCOC(=O)C(=Cc1cc(=O)c(OC)co1)C(=O)OCC | inconclusive: 8.91 µM [inhibitor, full curve, poor fit] | 
11 | c1ccc2c(c1)C(=NC1CCCCC1)NC2=NC1CCCCC1 | inconclusive: 15.8 µM [inhibitor, partial curve, poor fit] | 
12 | N#Cc1cccc(NC(=O)COc2ccc(-n3ccnc3)cc2)c1 | inconclusive: 28.2 µM [inhibitor, partial curve, poor fit] | 
13 | O=C(c1cc2ccc3cccnc3c2[nH]1)N1CCN(c2cccc(Cl)c2)CC1 | inactive | 
14 | Cc1oc(S(=O)(=O)N2CCOCC2)cc1C(=O)Nc1ccc(Cl)cc1 | inconclusive: 14.1 µM [inhibitor, partial curve] | 
15 | Cc1[nH]c2ccccc2c1/C=N/NC(=O)C1CC1(c1ccccc1)c1ccccc1 (stereo not drawn) | inconclusive: 39.8 µM [inhibitor, partial curve, poor fit] | 
16 | C=CCN1C(=O)/C(=C/c2ccc3c(c2)CCCN3CCC)C(=O)NC1=S | inconclusive: 31.6 µM [inhibitor, partial curve, poor fit] | 
17 | COc1ccc2cc(/C=C3\SC(=S)NC3=O)c(N3CCOCC3)nc2c1 | inconclusive: 28.2 µM [inhibitor, single point] | 
18 | O=C(COc1ccc2c(c1)CCC2)Nc1ccccn1 | inconclusive: 10 µM [inhibitor, partial curve, poor fit] | 
19 | O=S(=O)(c1ccc(Cl)cc1)c1cnc2ccccc2n1 | inconclusive: 25.1 µM [inhibitor, single point] | 
20 | COc1ccc(-c2cc(C)no2)cc1S(=O)(=O)N1CCN(c2ccc([N+](=O)[O-])cc2)CC1 | inconclusive: 3.16 µM [inhibitor, partial curve, poor fit] | 

Entries of single compounds, looked up by structure:
`N#Cc1cccc(NC(=O)COc2ccc(-n3ccnc3)cc2)c1` is entered as Potency: inconclusive: 28.2 µM [inhibitor, partial curve, poor fit]
`Cc1ccc(S(=O)(=O)N2CCC(C(=O)NC3CCCC3)CC2)cc1Cl` is entered as Potency: inconclusive: 25.1 µM [inhibitor, partial curve, poor fit]

The results go on.

Row | Compound | Potency | activity, negative = inhibition
21 | COC(=O)c1[nH]c2cc(OC)ccc2c1NC(=O)CCN1CCN(c2cccc(C)c2C)CC1 | inconclusive: 39.8 µM [inhibitor, partial curve, poor fit] | 
22 | COc1ccccc1C(CNC(=O)c1ccc(-c2ccccc2Cl)o1)N1CCCC1 (stereo not drawn) | inactive | 
23 | O=C(CN1CCOc2ccccc21)N1CCC(Cc2ccccc2)CC1 | inconclusive: 22.4 µM [inhibitor, partial curve, poor fit] | 
24 | Cc1cc(Cl)ccc1OC(C)C(=O)N1CCCN(C(=O)C(C)Oc2ccc(Cl)cc2C)CC1 (stereo not drawn) | inconclusive: 28.2 µM [inhibitor, partial curve, poor fit] | 
25 | CCOc1cc(/C=C2\C(=O)N(CCc3ccc(OC)c(OC)c3)C(C)=C2C(=O)OC)ccc1O | inconclusive: 20 µM [inhibitor, partial curve, poor fit] | 
26 | CC(=O)C(=Cc1ccc(Cl)cc1)C(=O)c1ccccc1 | inconclusive: 28.2 µM [inhibitor, partial curve, poor fit] | 
27 | CCOC(=O)c1c(C)nc2sc3c(=O)n(-c4ccc(C(C)=O)cc4)cnc3c2c1-c1ccc(OC)cc1 | inconclusive: 12.6 µM [inhibitor, partial curve, poor fit] | 
28 | CCc1ccc(CNc2ccc(N3CCN(C(C)=O)CC3)cc2)cc1 | inconclusive: 5.01 µM [inhibitor, partial curve] | 
29 | COc1ccc(NC(=O)/C(C#N)=C/c2ccc(Sc3nncn3C)c([N+](=O)[O-])c2)cc1 | inconclusive: 31.6 µM [inhibitor, partial curve, poor fit] | 
30 | Cc1ccc(C(=O)N2CCN(Cc3ccc4c(c3)OCO4)CC2)cc1[N+](=O)[O-] | inconclusive: 39.8 µM [inhibitor, single point] | 
31 | Cc1ccc(-n2nc3ccc(N)cc3n2)cc1C | inconclusive: 17.8 µM [inhibitor, single point] | 
32 | O=C(O)c1ccc(N/N=C/c2ccc(OC(=O)c3cccc(Cl)c3)cc2)cc1 | inconclusive: 20 µM [inhibitor, partial curve, poor fit] | 
33 | CN1CCN(c2ccc(-c3cccc(NC(=O)COc4ccc(Cl)cc4)c3)nn2)CC1 | inconclusive: 39.8 µM [inhibitor, single point] | 
34 | CC(c1ccccc1)N1C(=O)/C(=C/c2ccncc2)SC1=S (stereo not drawn) | inconclusive: 31.6 µM [inhibitor, partial curve, poor fit] | 
35 | COc1cc(C2C3C(=O)N(Cc4ccccc4)C(=O)C3ON2c2ccccc2)cc(OC)c1OC (stereo not drawn) | inconclusive: 12.6 µM [inhibitor, partial curve] | 
36 | Cc1ccc(NC(=O)c2cc3ccccc3o2)cc1S(=O)(=O)N(C)C | inconclusive: 25.1 µM [inhibitor, single point] | 
37 | CCCCOc1cccc(C(=O)Nc2ccc3oc(-c4cccnc4)nc3c2)c1 | inconclusive: 15.8 µM [inhibitor, partial curve, poor fit] | 
38 | O=C(CNC(=O)c1ccc2ccccc2c1)NCc1ccc(F)cc1 | inconclusive: 3.16 µM [inhibitor, full curve] | 
39 | COC(=O)[C@]12CCCCC=C1N(Cc1ccc(Cl)cc1Cl)C(=O)[C@H](CC(=O)NCc1ccc(OC)c(OC)c1)C2 | inconclusive: 31.6 µM [inhibitor, partial curve, poor fit] | 
40 | COc1cccc(N2CCN(C(=O)c3[nH]c(C)c(C(C)=O)c3C)CC2)c1 | inconclusive: 22.4 µM [inhibitor, partial curve, poor fit] | 

Row | Compound | Potency | activity, negative = inhibition
41 | Cn1cc(S(=O)(=O)N2CCc3ccccc32)cc1C(=O)Nc1ccc(C(F)(F)F)cc1 | inconclusive: 28.2 µM [inhibitor, partial curve, poor fit] | 
42 | CCCCN(CC)c1nc(-c2ccncc2)nc2ccccc12 | inconclusive: 25.1 µM [inhibitor, partial curve, poor fit] | 
43 | COC1=C(Br)C(=O)c2nc(C)ccc2C1=O | inconclusive: 39.8 µM [inhibitor, single point] | 
44 | COc1ccc(C2C(=O)c3ccccc3C2=O)cc1OC | inconclusive: 39.8 µM [inhibitor, single point] | 
45 | CC(=O)OC(C)(C)/C=C/C(=O)[C@](C)(O)C1[C@H](O)C[C@@]2(C)C3CC=C4C(C[C@H](O)C(=O)C4(C)C)[C@]3(C)C(=O)C[C@]12C (stereo partly drawn) | inconclusive: 28.2 µM [inhibitor, single point] | 
46 | COc1ccc([N+](=O)[O-])c(S(=O)(=O)c2ccc(Cl)cc2)n1 | inconclusive: 12.6 µM [inhibitor, partial curve, poor fit] | 
47 | O=C(NC1=NCCS1)c1cc2ccccc2o1 | inconclusive: 11.2 µM [inhibitor, single point] | 
48 | O=C(CN1CCN(C(=O)c2ccco2)CC1)Nc1ccc2c(c1)OCCO2 | inconclusive: 28.2 µM [inhibitor, partial curve, poor fit] | 
49 | Cc1oc2c(O)c(O)ccc2c(=O)c1-c1cnn(-c2ccccc2)c1 |  | inconclusive: -30.7% [inhibitor]
50 | Cc1nn2c(NCCN3CCOCC3)c3c(nc2c1-c1ccccc1)CCCC3 | inconclusive: 8.91 µM [inhibitor, partial curve] | 
51 | Cc1cccc(N2CCN(C(=O)CCS(=O)(=O)c3ccc4c(c3)oc(=O)n4C)CC2)c1C | inactive | 
52 | Cc1ccc(C)c(N2CCN(CCCNC(=O)c3ccc4nc(N5CCCCC5)sc4c3)CC2)c1 | inconclusive: 39.8 µM [inhibitor, single point] | 
53 | c1cncc(-c2nc(NCC3COc4ccccc4O3)c3ccccc3n2)c1 (stereo not drawn) | inconclusive: 22.4 µM [inhibitor, partial curve, poor fit] | 
54 | CC(C)c1ccc(N(C(=O)c2snc(C(N)=O)c2N)C(C(=O)NCC2CCCO2)c2ccc(N(C)C)cc2)cc1 (stereo not drawn) | inconclusive: 17.8 µM [inhibitor, partial curve, poor fit] | 
55 | Cc1cc(S(=O)(=O)N2CCN(c3ccccc3F)CC2)ccc1-n1cnnn1 | inactive | 
56 | CSc1ccccc1OCc1cc(C(=O)NCC(C)(C)N2CCOCC2)no1 | inactive | 
57 | O=C(c1cc(-c2ccc3c(c2)OCO3)on1)N1CCN(c2ccccc2)CC1 | inconclusive: 39.8 µM [inhibitor, single point] | 
58 | COc1ccc(N(C)S(=O)(=O)c2cccc(C(=O)OCC(=O)c3c(N)n(C)c(=O)n(C)c3=O)c2)cc1 | inconclusive: 22.4 µM [inhibitor, partial curve, poor fit] | 

Among those listed so far, these have a Cl atom.
Row | Compound | Potency | activity, negative = inhibition
6 | Cc1ccc(S(=O)(=O)N2CCC(C(=O)NC3CCCC3)CC2)cc1Cl | inconclusive: 25.1 µM [inhibitor, partial curve, poor fit] | 
13 | O=C(c1cc2ccc3cccnc3c2[nH]1)N1CCN(c2cccc(Cl)c2)CC1 | inactive | 
14 | Cc1oc(S(=O)(=O)N2CCOCC2)cc1C(=O)Nc1ccc(Cl)cc1 | inconclusive: 14.1 µM [inhibitor, partial curve] | 
19 | O=S(=O)(c1ccc(Cl)cc1)c1cnc2ccccc2n1 | inconclusive: 25.1 µM [inhibitor, single point] | 
22 | COc1ccccc1C(CNC(=O)c1ccc(-c2ccccc2Cl)o1)N1CCCC1 (stereo not drawn) | inactive | 
24 | Cc1cc(Cl)ccc1OC(C)C(=O)N1CCCN(C(=O)C(C)Oc2ccc(Cl)cc2C)CC1 (stereo not drawn) | inconclusive: 28.2 µM [inhibitor, partial curve, poor fit] | 
26 | CC(=O)C(=Cc1ccc(Cl)cc1)C(=O)c1ccccc1 | inconclusive: 28.2 µM [inhibitor, partial curve, poor fit] | 
32 | O=C(O)c1ccc(N/N=C/c2ccc(OC(=O)c3cccc(Cl)c3)cc2)cc1 | inconclusive: 20 µM [inhibitor, partial curve, poor fit] | 
33 | CN1CCN(c2ccc(-c3cccc(NC(=O)COc4ccc(Cl)cc4)c3)nn2)CC1 | inconclusive: 39.8 µM [inhibitor, single point] | 
39 | COC(=O)[C@]12CCCCC=C1N(Cc1ccc(Cl)cc1Cl)C(=O)[C@H](CC(=O)NCc1ccc(OC)c(OC)c1)C2 | inconclusive: 31.6 µM [inhibitor, partial curve, poor fit] | 
46 | COc1ccc([N+](=O)[O-])c(S(=O)(=O)c2ccc(Cl)cc2)n1 | inconclusive: 12.6 µM [inhibitor, partial curve, poor fit] | 

— PubChem BioAssay AID1347131 (National Center for Advancing Translational Sciences (NCATS), 2019)
